From PubChem BioAssay AID504834 (National Center for Advancing Translational Sciences (NCATS), 2011)
Among all 320,000 compounds or so, about 22,000 (6.9%) were called active. Inconclusive results, whose numbers are uncertain, are shown with a selection of clear calls. Calls come from the whole dose curve; as a rule, active = well fitted inhibition curve with a large enough effect; inconclusive = small, poorly fitted or top-dose-only effect, or another doubt; inactive = no such curve, though single readings can be large or run the other way. Potencies beside an inconclusive call are fits to weak or partial responses and may not hold up.
% is set by controls: 0 for no effect and ±100 for the full control effect; potency is the fitted concentration of half-maximal effect.

Experiment: Primary qHTS for delayed death inhibitors of the malarial parasite plastid, 96 hour incubation
Conditions: P. falciparum luciferase reporter growth; series mostly up to 28.7 µM; activity change, negative = inhibition: at the top concentration
Outline: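 Cell-based qHTS: luciferase-tagged P. falciparum in erythrocytes (2% hematocrit, 0.05% parasitemia final) incubated with compounds for 96 hours, 37 C, 5% CO2; luciferase detection reagent then added and luminescence measured.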
With COCCn1c(SCC(=O)N2CCc3ccccc3C2)nc2cc(Cl)ccc2c1=O the Potency was active: 9.28 µM. For CC(=O)Nc1cccc(C(=O)/C=C/c2ccc[nH]2)c1, the “activity change, negative = inhibition” value was inactive: 22.1%. In the case of CC1CCc2[nH]c3ccc(C(=O)N4CCCC(C(F)(F)F)C4)cc3c2C1 (centres undefined), the Potency is reported as inconclusive: 13.1 µM [inhibitor, single point]. For Cc1cc(NC(=O)c2ccc(N3CCCC3)c([N+](=O)[O-])c2)no1, the Potency was inconclusive: 8.28 µM [inhibitor, partial curve]. For CCc1cccc(CC)c1NC(=O)COC(=O)c1ccc2c(c1)S(=O)(=O)c1ccccc1C2=O, the Potency was inconclusive: 10.4 µM [inhibitor, single point]. For Cc1cc(Cl)c(S(=O)(=O)NCc2ccccc2)cc1OCC(N)=O, the “activity change, negative = inhibition” value was inactive: -27.7%. With CCc1ccc(CCOc2ccc(CC3SC(=O)NC3=O)cc2)nc1 (centres undefined) the Potency was inconclusive: 8.49 µM [inhibitor, partial curve]. For CCCCn1c(O)c(C(C)=NCCc2c[nH]c3ccccc23)c(=O)[nH]c1=O, the Potency was inconclusive: 13.1 µM [inhibitor, single point]. With Cc1cc(C)c(NC(=O)CSc2nc3c(c(=O)n2C)SC(C)C3)c(C)c1 (centres undefined) the Potency was inconclusive: 4.65 µM [inhibitor, partial curve, poor fit]. In the case of COc1ccc(OC)c2nc(-c3cccnc3)ccc12, the “activity change, negative = inhibition” value is reported as inactive: 39.5%. For COc1cc(NC(=O)c2ccccc2F)c(OC)cc1NC(=O)CN1CCCCC1, the “activity change, negative = inhibition” value was inactive: 50.7%. In the case of CCc1ccc(-c2ccc(SCC(=O)Nc3nnc(C)s3)nn2)cc1, the “activity change, negative = inhibition” value is reported as inactive: 52.5%. With Cc1c(Cl)c(=O)oc2cc(OP(=O)(OCCCl)OCCCl)ccc12 the Potency was inconclusive: 10.7 µM [inhibitor, single point]. In the case of CCOC(=O)c1c(C)n(C)c2ccc(OC)c(NC(=O)CN3CCN(Cc4ccccc4)CC3)c12, the “activity change, negative = inhibition” value is reported as inactive: 25.8%. For CCOC(=O)C(=CNNc1ccsc1C(=O)OC)C(=O)OCC, the Potency was inconclusive: 18.5 µM [inhibitor, single point]. For Cc1ccc(/C=N/Nc2nnc(Cc3ccccc3)c(=O)[nH]2)o1, the Potency was inconclusive: 9.28 µM [inhibitor, single point]. In the case of CCCN(CC(=O)Nc1ccccc1OC)C(=O)c1ccc2[nH]c3c(c2c1)CC(C)CC3 (centres undefined), the Potency is reported as inconclusive: 18.5 µM [inhibitor, single point]. In the case of O=C(NCc1cccnc1)c1ccc(-c2ccccc2[N+](=O)[O-])o1, the “activity change, negative = inhibition” value is reported as inactive: 37.5%. With O=[N+]([O-])c1ccc(N/N=C2\CC3CC=CC23)c([N+](=O)[O-])c1 (centres undefined) the “activity change, negative = inhibition” value was inactive: 24.6%. With Cn1c(=O)c(=O)n(C)c2cc(S(=O)(=O)CCC(=O)N3CCOCC3)ccc21 the Potency was inconclusive: 13.1 µM [inhibitor, single point]. In the case of O=C(Nc1ccc2oc(-c3ccccc3F)nc2c1)c1ccco1, the Potency is reported as inconclusive: 9.28 µM [inhibitor, partial curve, poor fit]. With Nc1nc(N)nc(-c2cc(F)ccc2O)n1 the Potency was inconclusive: 6.57 µM [inhibitor, partial curve]. With O=C1c2ccccc2C(=O)c2c1cccc2N1CCN(CCO)CC1 the Potency was inconclusive: 11.7 µM [inhibitor, partial curve, poor fit]. For CN(C)C(=O)[C@H]1C[C@H]1[C@@H](O)[C@H](CO)NC(=O)[C@H](COCc1ccccc1)NC(=O)OC(C)(C)C, the Potency was inconclusive: 18.5 µM [inhibitor, single point]. For Cc1ccc(-n2nnnc2SCC(=O)c2c(N)n(C3CC3)c(=O)[nH]c2=O)c(C)c1, the Potency was active: 5.86 µM. For Cc1ccc(NC(=O)C2CCN(S(=O)(=O)c3ccc4c(c3)CCCC(=O)N4)CC2)cc1N(C)C, the Potency was inconclusive: 14.7 µM [inhibitor, single point]. In the case of O=C(CCn1ccc2ccccc21)Nc1ccc(N2CCOCC2)cc1, the Potency is reported as inconclusive: 14.7 µM [inhibitor, single point]. With COc1ccc(OC)c(NC(=O)C2CCN(S(=O)(=O)c3ccc4c(c3)CC(C)N4C(C)=O)CC2)c1 (centres undefined) the Potency was active: 14.7 µM. With CCn1c(C)c(C)c2cc(C(=O)NCCN3CCCCCC3)ccc21 the Potency was inconclusive: 18.5 µM [inhibitor, single point]. In the case of CC(C)Nc1ncnc2c1cnn2-c1ccccc1, the “activity change, negative = inhibition” value is reported as inactive: 80.9%. In the case of Cc1ccc(SCC(=O)N2CCc3ccccc32)cc1, the Potency is reported as inconclusive: 11.7 µM [inhibitor, partial curve, poor fit]. For CC1(C)CC(=O)C2=C(C1)OC1=C(C(=O)CC(C)(C)C1)C2c1ccc(O)c([N+](=O)[O-])c1, the Potency was inconclusive: 6.57 µM [inhibitor, partial curve, poor fit]. For O=C(c1ccco1)N1N=C(c2cccs2)CC1c1ccccc1O (centres undefined), the Potency was inconclusive: 18.5 µM [inhibitor, single point]. In the case of O=C(CNC(=S)N(Cc1ccccc1)Cc1cccnc1)NCCN1CCOCC1, the “activity change, negative = inhibition” value is reported as inactive: 17.3%. For CC(C)(C)OC(=O)N1CCC[C@H]1C(=O)OCC(=O)Nc1cc(S(C)(=O)=O)ccc1Cl, the “activity change, negative = inhibition” value was inactive: -3.82%. In the case of Cc1cccc(-c2cccc(NC(=O)C3CCCN(C(=O)c4csc(C)n4)C3)c2)c1 (centres undefined), the Potency is reported as inconclusive: 20.8 µM [inhibitor, partial curve, poor fit]. For Cc1cc(C)cc(OCC(=O)N/N=C/c2ccncc2)c1, the Potency was inconclusive: 11.7 µM [inhibitor, single point]. For COc1ccccc1NC(=O)NC1CC(=O)N(c2ccc3c(c2)OCCO3)C1 (centres undefined), the “activity change, negative = inhibition” value was inactive: -0.87%. For CCOc1ccc(NC(=S)N(CCOC)C(C)c2ccco2)cc1 (centres undefined), the Potency was inconclusive: 0.0738 µM [inhibitor, full curve, poor fit]. For COc1cc2ccccc2cc1C(=O)N1CCN(c2ccccc2O)CC1, the Potency was inconclusive: 14.7 µM [inhibitor, single point]. In the case of CC(=O)CC(=O)Nc1ccccc1NC(C)=O, the “activity change, negative = inhibition” value is reported as inactive: 27.9%. For CCn1c(CNc2ccc(F)cc2)nnc1SCC(=O)OC1CCCCC1, the Potency was inconclusive: 11.7 µM [inhibitor, single point]. For O=C(O)Cc1ccc(NC(=O)Nc2ccc(Br)cc2)cc1, the Potency was inconclusive: 4.15 µM [inhibitor, partial curve, poor fit]. In the case of O=C(Nc1ccc(-c2cn3c(n2)SCC3)cc1)c1ccc2c(c1)OCO2, the Potency is reported as inconclusive: 13.1 µM [inhibitor, single point].
